{"source": "PubChem BioAssay AID1347076", "about": "(National Center for Advancing Translational Sciences (NCATS), 2019)", "note": "In all, about 400,000 compounds went through this assay and about 13,000 (3.2%) were called active. The inconclusive results got no clear call from the source; some entries with a clear call stand among them for comparison. The call rests on the fitted dose curve; in most records, active means well fitted cell-killing curve with a large enough effect; inconclusive means small, poorly fitted or top-dose-only effect, or effect the other way; inactive means flat fitted curve, though single readings scatter. Potencies beside an inconclusive call are fits to weak or partial responses and may not hold up. On the % scale 0 is the no-effect control and ±100 the full control effect; potency means the concentration at half of the fitted maximal effect."}
{"assay": "qHTS assay for MDR1-selective chemotherapeutics: Primary screen using the drug-selected MDR subline cells KB-V1; further: nearly all actives have a fitted effect of over 60% in size", "conditions": "KB-V1 MDR cells viability, CellTiter-Glo, 72 h; activity change, negative = cytotoxicity: at 46.1 µM (top of the series)", "method_in_brief": "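Cytotoxicity via CellTiter-Glo luminescence after 72 h compound exposure at 37 degrees C. Cells: drug-selected KB-V1 line, DMEM phenol-red free plus 10% FBS. Compounds tested at multiple concentrations; normalized data fitted to concentration-effect curves.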"}
{"smiles": "CCC(C)c1ccccc1N1CC(C(=O)NCCC2=CCCCC2)CC1=O", "note": "(stereo not given)", "Potency": "active: 23.1 µM"}
{"smiles": "O=C(NCc1ccco1)c1c(F)cccc1Cl", "Potency": "inconclusive: 16.4 µM [rising, partial curve, poor fit]"}
{"smiles": "O/N=C\\c1ccccc1Oc1ccc(F)cc1", "Potency": "inconclusive: 3.66 µM [cytotoxic, partial curve, poor fit]"}
{"smiles": "O=C(CCl)Nc1cccc2ncccc12", "Potency": "inconclusive: 18.4 µM [cytotoxic, single point]"}
{"smiles": "COc1ccc(N2CCN(C(=O)CN3c4cccc5cccc(c45)S3(=O)=O)CC2)cc1", "Potency": "inconclusive: 29.1 µM [cytotoxic, single point]"}
{"smiles": "Cc1ccc(C(=O)N/C(=C/c2ccco2)C(=O)Nc2cccc(C)c2)cc1", "Potency": "inconclusive: 18.4 µM [cytotoxic, partial curve]"}
{"smiles": "COc1ccc(C)cc1NC(=O)CCCN1C(=O)C(c2ccccc2)Oc2cccnc21", "note": "(stereo not given)", "activity change, negative = cytotoxicity": "inactive: -8.82%"}
{"smiles": "COc1cc(OC)cc(C(=O)Nc2cccc(-c3ccc(N4CCOCC4)nn3)c2)c1", "activity change, negative = cytotoxicity": "inactive: -10.5%"}
{"smiles": "COc1cc(/C=C2\\CCCc3c2nc2ccccc2c3C(=O)O)cc(OC)c1O", "activity change, negative = cytotoxicity": "inactive: 0%"}
{"smiles": "Oc1c(C=C2N=c3ccccc3=N2)sc(=S)n1-c1ccc2ccccc2c1", "Potency": "inconclusive: 18.4 µM [rising, partial curve]"}
{"smiles": "CCOc1ccccc1N1CCN(CC(=O)Nc2ccccc2C(=O)NC2CC2)CC1", "activity change, negative = cytotoxicity": "inactive: 0%"}
{"smiles": "CC1(C(=O)NCc2ccccc2)CSCC(=O)N1Cc1cccs1", "note": "(stereo not given)", "Potency": "inconclusive: 20.6 µM [cytotoxic, partial curve]"}
{"smiles": "CCC1(CC)NC(=O)N(CC(=O)Nc2sc3c(c2C(N)=O)CCC3)C1=O", "Potency": "inconclusive: 20.6 µM [rising, single point]"}
{"smiles": "COc1ccccc1Oc1ccc2c(c1)C(=O)N(c1cccc3ncccc13)C2=O", "Potency": "inconclusive: 29.1 µM [cytotoxic, single point]"}
{"smiles": "CCN1CCN(c2ncc(C(=O)Nc3cc(Cl)ccc3OC)c3ccccc23)CC1", "Potency": "inconclusive: 14.6 µM [cytotoxic, partial curve]"}
{"smiles": "Cc1cccc(-c2n[nH]c(=S)n2-c2ccccc2)c1[N+](=O)[O-]", "Potency": "inconclusive: 29.1 µM [rising, single point]"}
{"smiles": "CCN(C(=O)CSc1nc2ccccc2n1CCc1ccccc1)C1CCS(=O)(=O)C1", "note": "(stereo not given)", "Potency": "inconclusive: 10.3 µM [cytotoxic, partial curve]"}
{"smiles": "CN1CCCc2cc(/C=C/c3ccnc4ccccc34)ccc21", "Potency": "inconclusive: 23.1 µM [cytotoxic, partial curve, poor fit]"}
{"smiles": "N/C(COc1cccc(Cl)c1)=N\\NS(=O)(=O)c1ccccc1", "Potency": "inconclusive: 0.0092 µM [cytotoxic, full curve, poor fit]"}
{"smiles": "CCOC(=O)[C@]12CCC=C1N(Cc1ccc3c(c1)OCO3)C(=O)[C@H](CC(=O)NCCCN1CCCC1=O)C2", "Potency": "inconclusive: 29.1 µM [rising, single point]"}
{"smiles": "CC1CN(CCOc2ccccc2-c2ccccc2)CC(C)O1", "note": "(stereo not given)", "Potency": "active: 20.6 µM"}
{"smiles": "COc1ccc(NC(=O)Cn2ncc3c(C)n(Cc4cccc(Cl)c4)c(C)c3c2=O)cc1", "activity change, negative = cytotoxicity": "inactive: 3.33%"}
{"smiles": "O=C(Nc1ccn(CCCN2CCN(Cc3cccc4ccccc34)CC2)c(=O)n1)OCc1ccccc1", "Potency": "active: 18.4 µM"}
{"smiles": "COc1cc2c(cc1NC(=O)COc1ccc(Br)c(C)c1)oc1ccccc12", "activity change, negative = cytotoxicity": "inactive: -2.43%"}
{"smiles": "COc1ccc2c(c1)CC[C@@H]1[C@@H]2CC[C@]2(C)[C@@H](C(C)=O)C[C@@H]12", "Potency": "inconclusive: 32.6 µM [cytotoxic, single point]"}
{"smiles": "Cc1ccc(S(=O)(=O)N(C)c2ccc(C(=O)N3CCCCC3)cc2)cc1", "Potency": "inconclusive: 6.31 µM [cytotoxic, partial curve, poor fit]"}
{"smiles": "COc1ccc(CC(=O)NC(C)c2ccc(S(N)(=O)=O)cc2)cc1S(=O)(=O)N1CCOCC1", "note": "(stereo not given)", "Potency": "inconclusive: 14.6 µM [rising, single point]"}
{"smiles": "CC(C)N=c1cc2n(-c3ccc(Cl)cc3)c3ccccc3nc-2cc1Nc1ccc(Cl)cc1", "Potency": "inconclusive: 13 µM [cytotoxic, partial curve]"}
{"smiles": "Cc1ccc2nc(NCc3ccccc3)[nH]c2c1", "Potency": "active: 5.8 µM"}
{"smiles": "Clc1ccc(CN2C3=NCCCN3c3ccccc32)c(Cl)c1", "Potency": "inconclusive: 23.1 µM [cytotoxic, single point]"}
{"smiles": "CCCNC(=O)C1(C)CCCN(Cc2ccc(C(=O)OCC)o2)C1", "note": "(stereo not given)", "activity change, negative = cytotoxicity": "inactive: 5.43%"}
{"smiles": "Cc1nc(NC2CCCC2)sc1C(=O)N(C)C", "Potency": "inconclusive: 29.1 µM [cytotoxic, single point]"}
{"smiles": "N#CC(=C1C=C(Br)C(=NO)C=C1Cl)c1cccc2ccccc12", "Potency": "inconclusive: 25.9 µM [cytotoxic, single point]"}
{"smiles": "COc1ccc(-c2csc3ncnc(N4CCN(c5ccccc5Cl)CC4)c23)cc1", "Potency": "inconclusive: 16.4 µM [cytotoxic, partial curve]"}
{"smiles": "CCc1nnc(SCC(=O)Nc2ccc(Cl)cc2F)c2cc3occc3n12", "activity change, negative = cytotoxicity": "inactive: 2.17%"}
{"smiles": "CCOC(=O)Cn1c(=O)n(-c2ccccc2OC)c2nc(-c3ccccc3)nc(C(N)=O)c21", "Potency": "inconclusive: 11.6 µM [cytotoxic, partial curve]"}
{"smiles": "CCOC(=O)c1c(NC(=O)CCCOc2ccc(C)cc2)sc2c1CCC(C)C2", "note": "(stereo not given)", "activity change, negative = cytotoxicity": "inactive: 10%"}
{"smiles": "CC(C)C(=O)N(c1cc2sc(=O)oc2c2ccccc12)S(=O)(=O)c1cccs1", "Potency": "inconclusive: 29.1 µM [rising, single point]"}
{"smiles": "Cc1cccc(N2CCN(C(=O)c3cn(C)c4ccc(S(=O)(=O)N(C)C)cc4c3=O)CC2C)c1", "note": "(stereo not given)", "activity change, negative = cytotoxicity": "inactive: -2.88%"}
{"smiles": "Cn1c(=O)n(C)c2cc(NS(=O)(=O)c3ccc(C(C)(C)C)cc3)ccc21", "Potency": "inconclusive: 8.2 µM [cytotoxic, partial curve]"}
{"smiles": "CN(C)S(=O)(=O)c1ccc(C(=O)OCC(=O)Nc2ccc3c(c2)OCO3)cc1", "Potency": "inconclusive: 9.2 µM [rising, single point]"}
{"smiles": "O=C(COC(=O)c1ccc(O)cc1)Nc1ccc(S(=O)(=O)N2CCOCC2)cc1", "Potency": "inconclusive: 29.1 µM [rising, single point]"}
{"smiles": "O=C(N/N=C/c1ccc2c(c1)OCO2)/C(=C/c1ccc2c(c1)OCO2)NC(=O)c1ccccc1", "activity change, negative = cytotoxicity": "inactive: -5.75%"}
{"smiles": "CCOc1ccc(NC(=O)c2cccc(S(=O)(=O)NCc3cccnc3)c2)cc1", "Potency": "inconclusive: 29.1 µM [rising, single point]"}
{"smiles": "O=C(O)CCCC(=O)NNc1nc(-c2ccccc2)c2cc(Cl)ccc2n1", "activity change, negative = cytotoxicity": "inactive: -2.32%"}
{"smiles": "O=c1c2cc(Br)ccc2nc(-c2ccccc2)n1O", "activity change, negative = cytotoxicity": "inactive: -0.365%"}
{"smiles": "CCC(=O)Nc1ccc2c(c1)OC[C@@H](C)N(Cc1cccc(F)c1)C[C@@H](C)[C@@H](OC)CN(C)C2=O", "Potency": "inconclusive: 10.3 µM [cytotoxic, partial curve, poor fit]"}
{"smiles": "CCCOP(=O)(OCCC)c1nc(-c2ccccc2)oc1NCc1ccccc1", "Potency": "inconclusive: 5.8 µM [cytotoxic, full curve]"}
{"smiles": "COc1ccc2oc(C(=O)OCC(=O)N(CCC#N)c3ccccc3)c(C)c2c1", "Potency": "inconclusive: 11.6 µM [cytotoxic, partial curve]"}
{"smiles": "O=C(COc1ccc([N+](=O)[O-])cc1)Nc1ccc(N2CCN(C(=O)c3ccco3)CC2)cc1", "activity change, negative = cytotoxicity": "inactive: 2.05%"}
{"smiles": "COc1ccnc(Oc2ccc(F)cc2)c1C(=O)N/C=N/OCc1ccc(F)cc1Cl", "Potency": "inconclusive: 16.4 µM [cytotoxic, partial curve]"}
{"smiles": "S=C(NC1CCCCC1)N1CCc2ccccc2C1", "Potency": "active: 14.6 µM"}
{"smiles": "Cc1cc(C(=O)O)ccc1-n1c(C)cc(/C=C(/C#N)C(=O)Nc2ccccc2)c1C", "Potency": "inconclusive: 16.4 µM [cytotoxic, single point]"}
{"smiles": "Cc1cc(C=C2C(=O)c3ccccc3C2=O)c(C)n1C", "activity change, negative = cytotoxicity": "inactive: 2.19%"}
{"smiles": "O=C(C[C@H]1C(=O)N(Cc2ccccc2)C[C@@H]1Cc1ccccc1)Nc1ccc(Br)cc1", "Potency": "inconclusive: 18.4 µM [cytotoxic, partial curve]"}
{"smiles": "O=C(NC1CCCCCCC1)c1ccc(F)cc1", "activity change, negative = cytotoxicity": "inactive: -0.727%"}
{"smiles": "CCn1c(N2CCN(S(=O)(=O)c3ccccc3C(F)(F)F)CC2)nc2ccccc21", "Potency": "active: 18.4 µM"}
{"smiles": "Cn1c2c(c(=O)n(C)c1=O)C(c1cccc(O)c1)CC(=O)N2", "note": "(stereo not given)", "Potency": "inconclusive: 8.2 µM [rising, partial curve, poor fit]"}
{"smiles": "C=CCN(CC(=O)NCC1CCCO1)C(=O)CCC(=O)Nc1cc(C)on1", "note": "(stereo not given)", "Potency": "inconclusive: 29.1 µM [rising, single point]"}
{"smiles": "CSc1nc(-c2ccccc2)nc(NC(C)=O)c1C(C)=O", "Potency": "inconclusive: 29.1 µM [rising, single point]"}
{"smiles": "Cc1noc(C)c1S(=O)(=O)Nc1ccc(C(=O)Nc2ccc(C(C)C)cc2)cc1", "activity change, negative = cytotoxicity": "inactive: 18.9%"}
{"smiles": "CCOc1ccccc1NC(=O)c1csc(C)c1C", "activity change, negative = cytotoxicity": "inactive: -1.16%"}
{"smiles": "CC1=C(C(=O)N2CCOCC2)CC(CC(=O)NCCCCc2ccccc2)C(=O)N1Cc1ccc(C(C)(C)C)cc1", "note": "(stereo not given)", "activity change, negative = cytotoxicity": "inactive: 5.1%"}
{"smiles": "CCCc1ccc(S(=O)(=O)N2CCN(C(=O)c3cc(C)on3)CC2)cc1", "Potency": "inconclusive: 8.2 µM [cytotoxic, partial curve]"}
{"smiles": "CCC(C)NS(=O)(=O)c1ccc(OCC(=O)Nc2ccc3c(c2)OCCO3)cc1", "note": "(stereo not given)", "Potency": "inconclusive: 9.2 µM [cytotoxic, partial curve, poor fit]"}
{"smiles": "Nc1ncnn1Cc1ccccc1", "activity change, negative = cytotoxicity": "inactive: 4.66%"}
{"smiles": "COc1cc(SC)ccc1C(=O)Nc1ccncc1", "Potency": "inconclusive: 29.1 µM [cytotoxic, single point]"}
{"smiles": "O=C(COc1ccc2c3c(c(=O)oc2c1)CCC3)Nc1ccccn1", "activity change, negative = cytotoxicity": "inactive: -1.13%"}
{"smiles": "CC(=O)N1CCC2(CC1)OC(=O)C(C)=C2C(=O)NCc1ccccc1Cl", "Potency": "inconclusive: 0.517 µM [rising, full curve]"}
{"smiles": "CC(OC(=O)c1ccc(S(=O)(=O)NCc2ccco2)cc1)C(=O)Nc1ncc(Cl)cc1Cl", "note": "(stereo not given)", "activity change, negative = cytotoxicity": "inactive: -4.69%"}
